In patent publication US20190106510A1 (CELLDEX THERAPEUTICS, published 2019):
These are yes or no findings as the source states them, for the method shown. Some entries that bind do so weakly or less than the wild type.

Sequences of proteins named here, by UniProt entry; tags and fusion partners are left off. A change or cut given only in a name is not applied to a line headed by its entry. Residues count along the entry.
UniProt O97799, residues 28-527: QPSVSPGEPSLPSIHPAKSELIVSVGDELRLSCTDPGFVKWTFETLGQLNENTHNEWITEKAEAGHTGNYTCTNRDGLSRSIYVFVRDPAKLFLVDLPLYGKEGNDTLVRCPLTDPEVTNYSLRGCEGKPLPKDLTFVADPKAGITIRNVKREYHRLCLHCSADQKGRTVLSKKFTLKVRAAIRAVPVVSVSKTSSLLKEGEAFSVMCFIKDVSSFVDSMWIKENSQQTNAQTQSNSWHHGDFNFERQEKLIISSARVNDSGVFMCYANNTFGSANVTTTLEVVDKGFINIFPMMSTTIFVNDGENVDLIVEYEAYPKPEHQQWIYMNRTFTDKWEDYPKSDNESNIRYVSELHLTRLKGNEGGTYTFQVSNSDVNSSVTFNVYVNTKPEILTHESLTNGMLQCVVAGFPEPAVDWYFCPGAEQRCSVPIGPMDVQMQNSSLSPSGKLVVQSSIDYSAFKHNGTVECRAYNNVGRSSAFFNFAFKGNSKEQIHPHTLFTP
UniProt P10721: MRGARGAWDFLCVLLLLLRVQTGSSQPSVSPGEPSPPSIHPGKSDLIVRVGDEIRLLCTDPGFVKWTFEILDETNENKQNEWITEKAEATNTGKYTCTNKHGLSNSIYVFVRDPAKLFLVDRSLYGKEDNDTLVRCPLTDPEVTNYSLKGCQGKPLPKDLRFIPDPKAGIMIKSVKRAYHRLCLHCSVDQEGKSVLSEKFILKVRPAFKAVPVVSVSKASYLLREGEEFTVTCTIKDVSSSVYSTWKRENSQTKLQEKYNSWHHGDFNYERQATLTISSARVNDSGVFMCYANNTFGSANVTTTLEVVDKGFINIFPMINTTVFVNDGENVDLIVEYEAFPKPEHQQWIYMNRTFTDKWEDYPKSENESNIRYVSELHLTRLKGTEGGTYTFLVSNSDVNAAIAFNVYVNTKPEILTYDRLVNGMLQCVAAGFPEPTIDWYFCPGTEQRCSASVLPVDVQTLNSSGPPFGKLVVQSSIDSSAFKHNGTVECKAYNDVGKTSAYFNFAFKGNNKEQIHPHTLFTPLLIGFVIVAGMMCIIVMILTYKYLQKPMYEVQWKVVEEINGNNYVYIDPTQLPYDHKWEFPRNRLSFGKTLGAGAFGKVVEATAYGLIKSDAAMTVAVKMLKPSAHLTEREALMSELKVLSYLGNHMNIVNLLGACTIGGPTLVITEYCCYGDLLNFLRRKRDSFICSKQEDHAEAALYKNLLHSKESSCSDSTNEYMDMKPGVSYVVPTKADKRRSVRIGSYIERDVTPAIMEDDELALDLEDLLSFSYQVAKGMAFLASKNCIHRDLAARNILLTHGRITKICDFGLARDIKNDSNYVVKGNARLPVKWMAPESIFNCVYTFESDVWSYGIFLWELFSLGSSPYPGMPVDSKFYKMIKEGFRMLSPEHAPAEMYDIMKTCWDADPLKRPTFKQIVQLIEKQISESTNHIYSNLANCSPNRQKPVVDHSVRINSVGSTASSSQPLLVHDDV

What was measured:
[1] = target: canine KIT (canine) (UniProt O97799); experiment: additional binding assays (format not described)
[2] = target: human KIT (human) (UniProt P10721); experiment: additional binding assays (format not described)

binding [1]	binding [2]	Binder
binds	binds	Hum8 (antibody, V domains shown) VH: QVQLVQSGAEVKKPGASVKLSCKASGYTFTDYYINWVRQAPGKGLEWIARIYPGSGNTYYNEKFKGRATLTADKSTSTAYMQLSSLRSEDTAVYFCARGVYYFDYWGQGTTVTVSS VL: DIVMTQSPSSLSASVGDRVTITCKASQNVRTNVAWYQQKPGKAPKALIYSASYRYSGVPDRFTGSGSGTDFTLTISSLQPEDFADYFCQQYNSYPRTFGGGTKVEIK
binds	binds	Hum10 (antibody, V domains shown) VH: QVQLVQSGAEVKKPGASVKVSCKASGYTFTDYYINWVRQAPGKGLEWIARIYPGSGNTYYNEKFKGRVTITADKSTSTAYMELSSLRSEDTAVYFCARGVYYFDYWGQGTTVTVSS VL: DIVMTQSPSSLSASVGDRVTITCKASQNVRTNVAWYQQKPGKAPKALIYSASYRYSGVPDRFTGSGSGTDFTLTISSLQPEDFADYFCQQYNSYPRTFGGGTKVEIK
binds	binds	Hum17 (antibody, V domains shown) VH: QVQLVQSGAEVKKPGASVKLSCKASGYTFTDYYINWVKQAPGKGLEWIARIYPGSGNTYYNEKFKGRATLTAEKSTSTAYMQLSSLRSEDTAVYFCARGVYYFDYWGQGTTVTVSS VL: DIVMTQSPSSLSASVGDRVTITCKASQNVRTNVAWYQQKPGKAPKSLIYSASYRYSGVPDRFSGSGSGTDFTLTISSLQPEDFATYYCQQYNSYPRTFGGGTKVEIK
binds	binds	Hum4 (antibody, V domains shown) VH: QVQLVQSGAEVKKPGASVKVSCKASGYTFTDYYINWVRQAPGKGLEWIARIYPGSGNTYYNEKFKGRATITADKSTSTAYMELSSLRSEDTAVYFCARGVYYFDYWGQGTTVTVSS VL: DIVMTQSPSFLSASVGDRVTITCKASQNVRTNVAWYQQKPGKAPKALIYSASYRYSGVPDRFTGSGSGTDFTLTISSLQSEDFADYFCQQYNSYPRTFGGGTKVEIK
